PubChem BioAssay AID493246, Drosophila RNAi Screening Center – 2011
The screen tested about 21,000 reagents; this is a random part of those that have a named target and a result. Of all reagents, 429 (2%) are marked active. 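Values are raw and not normalised between plates; calls rest on per-plate z-scores that were not deposited.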 The numbers tell different reagents against one gene apart. A plus sign joins genes that one reagent is predicted to hit. Not given: the amount of reagent, the time to read-out.

Assay: 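Genome-wide search for dsRNAs that reduce cell number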 (primary screen)
Cells: Drosophila Kc and S2R+ cells
Knock-down reagent: long dsRNA against Drosophila genes
Measurement: 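Raw, unnormalised count of remaining cells in each well; per-plate z-scores of cell number underlie the calls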
Reading the numbers: Kc cell number and S2R+ cell number: higher = more cells remaining
Rule for the call: 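Active when the per-plate z-score of cell number is 3 or more in the direction of fewer cells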

The first 2 entries, ahead of the listing:
no.	target gene	dsRNA no.	Kc cell number, rep 1	Kc cell number, rep 2	S2R+ cell number, rep 1	S2R+ cell number, rep 2	Call
1	Nt5b (5' nucleotidase B)	1	1.72e6	1.69e6	1.13e6	1.28e6	inactive
2	Nt5b (5' nucleotidase B)	2	1.61e6	1.62e6	1.09e6	1.27e6	inactive

The list itself, from the first entry:
no.	target gene	dsRNA no.	Kc cell number, rep 1	Kc cell number, rep 2	S2R+ cell number, rep 1	S2R+ cell number, rep 2	Call
1	Nt5b (5' nucleotidase B)	1	1.72e6	1.69e6	1.13e6	1.28e6	inactive
2	Nt5b (5' nucleotidase B)	2	1.61e6	1.62e6	1.09e6	1.27e6	inactive
3	Nt5b (5' nucleotidase B)	3	1.71e6	1.75e6	1.16e6	1.25e6	inactive
4	CG42304 + Snup	1	1.37e6	1.43e6	1.09e6	1.15e6	inactive
5	CG42304 + Snup	2	1.55e6	1.52e6	8.73e5	9.89e5	inactive
6	CG10597	1	1.35e6	1.39e6	9.51e5	1.12e6	inactive
7	Ald2 (Aldolase 2)	1	1.67e6	1.88e6	1.01e6	1.11e6	inactive
8	PIG-A (Phosphatidylinositol glycan anchor biosynthesis class A)	1	1.32e6	1.41e6	1.20e6	1.17e6	inactive
9	Usp8 (Ubiquitin specific protease 8)	1	1.65e6	1.79e6	1.18e6	1.30e6	inactive
10	Atg9 (Autophagy-related 9)	1	1.31e6	1.36e6	1.25e6	1.23e6	inactive
11	Pat1 (Protein interacting with APP tail-1)	1	5.72e5		9.56e5		inactive
12	CG12948	1	1.48e6	1.47e6	1.24e6	1.33e6	inactive
13	CG34205	1	1.66e6	1.81e6	1.38e6	4.52e5	inactive
14	Ttd14 (TRPL translocation defect 14)	1	1.29e6	1.30e6	1.05e6	1.11e6	inactive
15	Ttd14 (TRPL translocation defect 14)	2	1.26e6	1.30e6	8.75e5	9.94e5	inactive
16	DnaJ-H (DnaJ homolog)	1	1.65e6	1.71e6	1.38e6	1.53e6	inactive
17	sinah (sina homologue)	1	1.48e6	1.80e6	1.39e6	1.52e6	inactive
18	CG13465	1	1.30e6	1.43e6	1.22e6	1.31e6	inactive
19	CG42741	1	1.70e6	1.75e6	1.29e6	1.47e6	inactive
20	ssp7 (short spindle 7)	1	1.62e6	1.82e6	1.14e6	1.18e6	inactive
21	CG12159	1	1.40e6	1.55e6	1.18e6	1.30e6	inactive
22	l(2)34Fc (lethal (2) 34Fc)	1	1.63e6	1.67e6	1.38e6	1.57e6	inactive
23	MED1 (Mediator complex subunit 1)	1	1.76e6	1.84e6	1.16e6	1.24e6	inactive
24	Vajk2	1	1.74e6	1.85e6	1.22e6	1.34e6	inactive
25	CG1354	1	1.48e6	1.47e6	1.04e6	1.11e6	inactive
26	Sqor (Sulfide quinone oxidoreductase)	1	1.44e6	1.49e6	1.31e6	1.34e6	inactive
27	Usf	1	1.54e6	1.53e6	1.02e6	1.15e6	inactive
28	sofe	1	5.58e5		7.70e5		inactive
29	CG12910	1	1.34e6	1.34e6	1.10e6	1.17e6	inactive
30	CG14223	1	1.54e6	1.55e6	1.16e6	1.28e6	inactive
31	CG14151	1	1.73e6	1.66e6	1.30e6	1.63e6	inactive
32	Prx6c + CG12896 + Prx6b	1	1.50e6	1.59e6	1.21e6	1.33e6	inactive
33	CG13531	1	1.70e6	1.82e6	1.29e6	1.34e6	inactive
34	Karl	1	5.50e5		7.70e5		inactive
35	CG42542	1	1.76e6	1.77e6	1.23e6	1.30e6	inactive
36	frj (farjavit)	1	1.28e6	1.34e6	5.82e5	8.10e5	inactive
37	gig (gigas)	1	1.54e6	1.66e6	1.19e6	1.27e6	inactive
38	inaF-C	1	1.27e6	1.51e6	1.09e6	1.08e6	inactive
39	CG32643	1	1.45e6	1.62e6	1.09e6	1.17e6	inactive
40	Trf4 (TBP-related factor 4)	1	1.59e6	1.56e6	1.12e6	1.28e6	inactive
41	Diedel	1	1.71e6	1.73e6	1.06e6	1.19e6	inactive
42	CG42700	1	5.77e5	1.02e6	4.18e5	5.68e5	active
43	CG42700	2	1.61e6	1.68e6	1.40e6	1.47e6	inactive
44	CG34338	1	1.32e6	1.38e6	1.02e6	1.06e6	inactive
45	Aos1 (Activator of SUMO 1)	1	1.56e6	1.45e6	1.19e6	1.29e6	inactive
46	SLIRP1 + anox	1	1.69e6	1.69e6	1.15e6	1.20e6	inactive
47	CG15767	1	1.43e6	1.46e6	8.81e5	9.97e5	inactive
48	Mst84Dd (Male-specific RNA 84Dd)	1	1.58e6	1.75e6	1.24e6	1.30e6	inactive
49	CG15754	1	1.66e6	1.56e6	1.18e6	1.35e6	inactive
50	CG13177	1	1.65e6	1.60e6	1.21e6	1.32e6	inactive
51	insb (insensible)	1	1.46e6	1.53e6	1.13e6	1.23e6	inactive
52	CheA75a (Chemosensory protein A 75a)	1	1.52e6	1.48e6	1.25e6	1.33e6	inactive
53	CG5323	1	1.57e6	1.63e6	1.19e6	1.29e6	inactive
54	CG7744	1	1.20e6	1.36e6	1.08e6	9.87e5	inactive
55	MED28 (Mediator complex subunit 28)	1	1.88e6	2.05e6	1.07e6	1.20e6	inactive
56	NO66 (Nucleolar protein 66)	1	5.80e5		8.51e5		inactive
57	Sol1	1	1.45e6	1.38e6	1.25e6	1.28e6	inactive
58	Sol1	2	1.40e6	1.42e6	1.24e6	1.34e6	inactive
59	Sol1	3	1.38e6	1.44e6	1.31e6	1.38e6	inactive
